Assay results published in the supplement of paper PMC10338343.
± gives the standard deviation. This is a selection; strong and weak results do not stand in their true shares. Many of these values have a large error. Some of the results follow.

Tests used:
[1] = tested on: MILI (PIWIL2) piRISC loaded with L1MC piRNA (26 nt); test: pre-steady-state target cleavage rate (min^-1); higher = faster piRNA-guided slicing of the target; details: guide: L1MC piRNA 5'p-UAACUAAAUACUAUGCAAGCUGUAGG
How it was run: (§1)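 Using HEPES–potassium acetate buffer at 33 °C, 1 nM active affinity-purified piRISC with a single synthetic guide was mixed with 0.1 nM transcribed, DNA-blocked target RNA library for 0–8 or 0–960 min, with or without 500 nM GTSF1 partner protein. Uncleaved targets were sequenced and normalised to depth and to weakly complementary targets, and three trials were pooled with k3 capped at 0.0001 min^-1. A burst-and-steady-state fit gave the pre-steady-state cleavage rate.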

[2] = tested on: MIWI (PIWIL1) piRISC loaded with L1MC piRNA (30 nt); test: as above; details: guide: L1MC piRNA 5'p-UAACUAAAUACUAUGCAAGCUGUAGGUCCU; auxiliary factor: none (no GTSF1)
How it was run: as §1

[3] = tested on: EfPiwi piRISC loaded with L1MC piRNA (26 nt); test: pre-steady-state target cleavage rate (min^-1); guide: L1MC piRNA 5'p-UAACUAAAUACUAUGCAAGCUGUAGG; MIWI and MILI are mouse PIWI proteins and EfPiwi is from a freshwater sponge; tags in brackets are library labels; higher = faster piRNA-guided slicing of the target
How it was run: as §1

[4] = auxiliary factor: none (no GTSF1)
[5] = auxiliary factor: 500 nM Ephydatia muelleri Gtsf1
[6] = auxiliary factor: none (no Gtsf1)

Sequence	pre-steady-state target cleavage rate [1, 4]	pre-steady-state target cleavage rate [2]	pre-steady-state target cleavage rate [3, 5]	pre-steady-state target cleavage rate [3, 6]	pre-steady-state target cleavage rate ([1]; auxiliary factor: 500 nM mouse GTSF1)
UCCUGGAUCACCUUGCAUAGUAUUUAGAAA	0.001 ± 0.0053	0.00141 ± 0.0032	0.00171 ± 0.004		
UCCUGGAUGACGAUGCAUAGUAUUUAGUAA	0.00256 ± 0.0039	0.000937 ± 0.0062	0.00247 ± 0.0032		
UCCUGGAACAGCUUGCAGUAGUAUUUAGUUA	0.00147 ± 0.004	0.00198 ± 0.0037	0.00105 ± 0.0046		
UCCUGGAUCAGCUUCCAUAGAAUUUAGUUA	0.000375 ± 0.012	0.000738 ± 0.0081	0.000563 ± 0.0052		
UCCUGGAUGAGCUUGCAUAGUAUUAAGAAA	0.00131 ± 0.0048	0.00139 ± 0.0047		0.000283 ± 0.034	
UCCUGGAUCAGCUUCGAUAGUAUUUUCAAA	0.000463 ± 0.0095	0.000689 ± 0.0067	0.000432 ± 0.0085		
UCCUGGAACAGCUUGCAUAGUUAAUACAAA	0.0013 ± 0.0046	0.00131 ± 0.0059	0.00174 ± 0.0047		
UCCUGGAUGUCGAAGCAUAGUAUUGAGUUA	0.00139 ± 0.0044	0.000873 ± 0.0081	0.000234 ± 0.016		
UCCUGGAUGUGCUUGCAUAGUAUUAUCUUA	0.000674 ± 0.0081	0.00108 ± 0.0072	0.00199 ± 0.0059		
UCCUGGUACAGCUUGCAUAGUUAUUACAAA	0.000896 ± 0.007	0.000938 ± 0.0059	0.000576 ± 0.0052		
UCCUGCUACAGCUUCCAUAGUAUUUACAAA	0.00067 ± 0.009	0.000867 ± 0.011	0.00279 ± 0.0021		
UCCUGGAUGUCCUUGCAUAGUAUUAGUUA	0.000874 ± 0.0051	0.00147 ± 0.003	0.00218 ± 0.0056		
UCCUGGAUCAGCUUGGUAAGUAUUUAGAAA	0.000409 ± 0.013	0.000967 ± 0.0088	0.000338 ± 0.0084		
UCCUGGAUCAGCUUCCAUAGUAUAUAGUUA	0.000226 ± 0.029	0.000709 ± 0.01	0.000467 ± 0.0073		
UCCUGGAUGUCGAUGCAUAGUAUUUUGUUA	0.00191 ± 0.0035	0.00141 ± 0.007	0.00215 ± 0.0035		
UCCUGGAUGUCCUUGCAUAGUAUUAAGAUA	0.000859 ± 0.0065	0.000919 ± 0.0075	0.00174 ± 0.0048		
UCCUGGAUGUCGUUGCAUAGUAUUAAGAUA	0.000781 ± 0.0066	0.000503 ± 0.013	0.000171 ± 0.03		
UCCUGGAUGUCGAAGCAUAGUAUUUAAUUA	0.000865 ± 0.0069	0.000656 ± 0.012	0.00111 ± 0.0066		
UCCUGGUACAGCUUGCAUAGUAAUAAGUUA	0.00246 ± 0.0031	0.00209 ± 0.0028	0.00546 ± 0.0031		
UCCUGGAUGUCGAAGCUUUGUAUUUAGUUA	0.000336 ± 0.013	0.000404 ± 0.013	0.00104 ± 0.0064		
UCCUGGUACAGCUUGCAUAGAUUUUAGAAA	0.00155 ± 0.0045	0.00136 ± 0.0046	0.00169 ± 0.0037		
UCCUCCUACAGCUUGCAUAGUAUUUACAAA	0.00211 ± 0.0034	0.00255 ± 0.0035		0.000566 ± 0.013	
UCCUGGAUCAGGAAGCAUAGUAUUUACAAA	0.000793 ± 0.0064	0.000783 ± 0.0073		0.000104 ± 0.057	
UCCUGGAUGUCGAAGCAUUCUAUUUAGUUA	0.000471 ± 0.0093	0.000588 ± 0.0058	0.00031 ± 0.0085		
UCCUGGAUGUCCUUCCAUUGUAUUUAGUUA	0.000342 ± 0.013	0.000517 ± 0.011	0.000251 ± 0.012		
UCCUGGAUGAGCUUGCAUAGUAAAUAGUAA	0.00102 ± 0.0064	0.00278 ± 0.003	0.00272 ± 0.0031		

Sequence	pre-steady-state target cleavage rate [1, 4]	pre-steady-state target cleavage rate [2]	pre-steady-state target cleavage rate [3, 5]	pre-steady-state target cleavage rate [3, 6]	pre-steady-state target cleavage rate ([1]; auxiliary factor: 500 nM mouse GTSF1)
UCCUGGAUGUCCUACGAUAGUAUUUAGUAA	0.000305 ± 0.014	0.000517 ± 0.012	0.000197 ± 0.017		
UCCUGGAUGUCCUUCCAUAGUAUUAAGUUA	0.000567 ± 0.0091	0.000632 ± 0.009	0.000164 ± 0.023		
UCCUGGAACAGCUUGCAUACUAUUUUCAAA	0.00121 ± 0.0049	0.00182 ± 0.0028	0.00152 ± 0.0025		
UCCUGGAUGUCGUUGCAUAGAAAUUAGUUA	0.000682 ± 0.0084	0.000928 ± 0.0075	0.00142 ± 0.0063		
UCCUGGUACAGCUUCCAUAGUAUUAAGUUA	0.00141 ± 0.0062	0.00132 ± 0.005	0.00133 ± 0.0029		
UCCUGGAUGUCGAUGCAUAGUAUUUAGAUA	0.00124 ± 0.0049	0.00105 ± 0.0049	0.00301 ± 0.0033		
UCCUGGAUGAGCUUCCAUAGUAUUUUGUUA	0.000948 ± 0.0068	0.000933 ± 0.0072	0.000371 ± 0.015		
UCCUGCUACAGCUUCCAUAGUAUUUAGAUA	0.000604 ± 0.0086	0.001 ± 0.0074		0.000235 ± 0.022	
UCCUGGAUGAGCUUGCAUAGAAUUUACAAA	0.000705 ± 0.0096	0.00201 ± 0.0046	0.0015 ± 0.0046		
UCCUGGAUGAGCUUGCAUAGUAAAAUCAAA [g9:g21:cont:t1A]	0.000105 ± 0.039	0.00026 ± 0.017	0.000591 ± 0.0069		
UCCUCCUACAGCUUGCAUAGUAAUUAGAAA	0.00171 ± 0.004	0.00188 ± 0.0035	0.00474 ± 0.0026		
UCCUCCUACAGCUUGGAUAGUAUUUUCAAA	0.000682 ± 0.0074	0.000965 ± 0.0045	0.00297 ± 0.0022		
UCCUGCUACAGGUUGCAUAGUAUUUUCAAA	0.000789 ± 0.0073	0.000921 ± 0.0069	0.00243 ± 0.0019		
UCCUGGAUGUCCUUCCUUAGUAUUUAGUUA	0.00072 ± 0.0075	0.000665 ± 0.0097	0.000881 ± 0.0065		
UCCUGGAUGUCCUUGCAUAGUAUAAAGUAA	0.00147 ± 0.0039	0.00122 ± 0.0071	0.000888 ± 0.0093		
UCCUGGAUGUCGAUGCAUAGUAUUUACUAA	0.000463 ± 0.013	0.00101 ± 0.0078	0.00224 ± 0.004		
UCCUGGUACAGGAUGCAUAGUAUUUAGAAA	0.00115 ± 0.0054	0.00103 ± 0.0088	0.00448 ± 0.004		
UCCUGGAUGUCGAUGCAUAGUAUUAUCUUA	0.000706 ± 0.0072	0.000593 ± 0.0088	0.000476 ± 0.011		
UCCUGCUACACCUUCCAUAGUAUUUAGUUA	0.00113 ± 0.0063	0.00183 ± 0.005	0.00334 ± 0.0022		
UCCUGGAACAGCUUGCAUAGUAAAUACAAA	0.000804 ± 0.0078	0.0014 ± 0.0064	0.000741 ± 0.0069		
UCCUGCUACAGCAACCAUAGUAUUUAGAAA	0.000288 ± 0.014	0.000157 ± 0.032	0.00206 ± 0.004		
UCCUGGAUGUCGAAGGAUAGUAUAUAGUUA		0.000114 ± 0.046		0.000155 ± 0.049	0.000148 ± 0.045
UCCUCCUACAGCUUGCACUAGUAUUUAGUUA	0.00175 ± 0.0037	0.00103 ± 0.0062	0.0137 ± 0.0056		
UCCUGGUAGUCCUUGCAUAGUAUUUAGAAA	0.00147 ± 0.0038	0.00179 ± 0.0027	0.00198 ± 0.0029		
UCCUGGAUCUCCUUGCAUAGUAUUUAGAAA	0.000908 ± 0.0064	0.00177 ± 0.0043	0.00628 ± 0.0051		

A run of entries of the results above, as a working copy:
Sequence	pre-steady-state target cleavage rate [1, 4]	pre-steady-state target cleavage rate [2]	pre-steady-state target cleavage rate [3, 5]	pre-steady-state target cleavage rate [3, 6]	pre-steady-state target cleavage rate ([1]; auxiliary factor: 500 nM mouse GTSF1)
UCCUGGAUGUCGAAGCAUUCUAUUUAGUUA	0.000471 ± 0.0093	0.000588 ± 0.0058	0.00031 ± 0.0085		
UCCUGGAUGUCCUUCCAUUGUAUUUAGUUA	0.000342 ± 0.013	0.000517 ± 0.011	0.000251 ± 0.012		
UCCUGGAUGAGCUUGCAUAGUAAAUAGUAA	0.00102 ± 0.0064	0.00278 ± 0.003	0.00272 ± 0.0031		
